Measured values from PMC4072751.
Results are given in words; binding and its absence hold for the method and conditions named. Binding can be weak; no strength is given. For some assays here: Sequences can lack the tags named with a protein. For some assays here: Binding seen in cells or lysates may run through a third protein.

T1: human NQO2 recombinant protein (wild type) (human) (UniProt P16083)
T1 sequence: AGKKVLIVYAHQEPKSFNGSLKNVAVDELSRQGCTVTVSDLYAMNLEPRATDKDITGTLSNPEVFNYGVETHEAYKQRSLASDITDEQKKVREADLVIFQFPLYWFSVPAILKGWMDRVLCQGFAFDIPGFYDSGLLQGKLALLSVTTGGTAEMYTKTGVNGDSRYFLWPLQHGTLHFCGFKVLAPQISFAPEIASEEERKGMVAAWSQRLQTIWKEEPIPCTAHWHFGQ

T2: GST-NQO2 (full length wild type NQO2) (human) (UniProt P16083)
T2 sequence: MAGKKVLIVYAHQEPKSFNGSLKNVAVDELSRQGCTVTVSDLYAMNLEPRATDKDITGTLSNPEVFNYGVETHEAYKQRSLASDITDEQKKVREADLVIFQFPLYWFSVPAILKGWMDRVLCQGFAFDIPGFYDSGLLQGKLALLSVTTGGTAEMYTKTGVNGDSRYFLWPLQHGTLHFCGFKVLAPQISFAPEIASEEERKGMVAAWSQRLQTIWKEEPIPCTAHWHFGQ

B1: human NQO2 recombinant protein (wild type) (enzyme, UniProt P16083 2-231)
chain: T1 sequence

Tests used:
[1] = target: T1, human NQO2 recombinant protein (wild type) (human); test: co-IP; recombinant NQO2 and AKT mixed (constant 2.5 ug of one, 0, 1.0 and 2.5 ug of the other), antibody overnight at 4°C in 50 mM Tris-HCl pH 8.0, 100 mM KCl, 0.1% NP-40, 2 mM EDTA; protein A/G-Sepharose; Western blot; reciprocal (anti-NQO2 or anti-AKT); both purified
[2] = target: T2, GST-NQO2 (full length wild type NQO2) (human); test: pull-down; GST-NQO2 fusion proteins (up to 2.5 ug) with His-tagged AKT proteins (up to 2.5 ug), 50 mM Tris-HCl pH 7.8, 1 mM EDTA, 150 mM NaCl, 1% Nonidet P-40, 4°C, glutathione-Sepharose beads; blots with anti-His, anti-AKT or anti-NQO2; GST-NQO2 pre-incubated with or without 1 mM resveratrol; both purified
[3] = target: human AKT recombinant protein (human); test: co-IP; recombinant NQO2 and AKT mixed (constant 2.5 ug of one, 0, 1.0 and 2.5 ug of the other), antibody overnight at 4°C in 50 mM Tris-HCl pH 8.0, 100 mM KCl, 0.1% NP-40, 2 mM EDTA; protein A/G-Sepharose; Western blot; reciprocal (anti-NQO2 or anti-AKT); both purified

Molecule | binding [2] | further results
human AKT recombinant protein (enzyme) | – | binding [1]: binds
His-AKT-dPH (AKT with deletion of PH domain) (human) (domain or fragment) | binds weakly | –
full length His-tag AKT (human) (enzyme) | binds | –
His-AKT-PH (AKT containing the PH domain) (human) (domain or fragment) | binds | –
B1 | – | binding [3]: binds
